The record followed here is US20240182593A1.

For this experiment, the target named is cynomolgus monkey OX40 (R&D, Cat. 10311-OX) (cynomolgus monkey). The experiment in a line: ELISA, cynomolgus monkey OX40 coated at 0.5 ug/ml, serially diluted antibody, goat anti-human Fab secondary antibody, O.D. 450 nm.

No constants are given. Whether binding was seen depends on the method and setting. Binding can be weak; no strength is given.

B1: O410 (antibody, human IgG1, lambda, V domains shown)
VH: EVQLLESGGGLVQPGGSLRLSCAASGFTFSDYYMSWVRQAPGKGLEWVSGIYSDGSRKYYADSVKGRFTISRDNSKNTLYLQMNSLRAEDTAVYYCARHWSRFDYWGQGTLVTVSS
VL: QSVLTQPPSASGTPGQRVTISCSGSSSNIGSNYVTWYQQLPRTAPKLLIYYDSNRPSGVPDRFSGSKSGTSASLAISGLRSEDEADYYCGAWDDSLSGYVFGGGTKLTVLG
Take B1: the binding result is “binds”.

B2: O31C (antibody, human IgG1, lambda, V domains shown)
VH: EVQLLESGGGLVQPGGSLRLSCAASGFTFSDYDMSWVRQAPGKGLEWVSSISPSSGSIYYADSVKGRFTISRDNSKNTLYLQMNSLRAEDTAVYYCAKDSIWCTNSRCYYDNAMDVWGQGTLVTVSS
VL: QSVLTQPPSASGTPGQRVTISCSGSSSNIGNNAVSWYQQLPGTAPKLLIYSDSNRPSGVPDRFSGSKSGTSASLAISGLRSEDEADYYCGSWDYSLSAYVFGGGTKLTVLG
With B2, the binding result is “binds”.
